Results as given in PubChem BioAssay AID330 (DTP/NCI, 2004).
The list does not hold the whole screen: it is rich in T/C values a quarter to a half above the control, in often repeated tests (any T/C) and in doses without a T/C. Other doses and runs of a compound stand elsewhere. T/C is the treated group as % of the vehicle group. Some doses have a count of surviving animals in place of a T/C: the source files T/C as zero there, which appears to mark a toxic dose or a test without result, not a measured value. Some survivor counts are full or nearly so, which does not show that the dose was tolerated: survival well below the control is almost never listed, so the zero probably covers shortened survival too. Survivors were counted at the toxicity check, usually on the fifth day, unless a day is given; later deaths do not show. Schedules are NCI's codes, taken here to give the interval after Q, in days (D) or hours (H), and the number of doses after X. Some entries hold several experiments; their values stand side by side, smallest first. For survival time, this PubChem deposit counts one and a half times the control or more as active, and values a quarter to a half above the control carry no call in these data; other NCI protocols may use other cut-offs. Some T/C values are followed by the survivors on the day toxicity was checked, most often the fifth; without a count, all were alive then.

System: P388 leukemia ip, CD2F1 mice, survival T/C
Test: NCI In Vivo Anticancer Drug Screen. Data for tumor model P388 Leukemia (intraperitoneal) in CD2F1 (CDF1) mice
Conditions: T/C endpoint: median survival time, higher T/C = longer survival
[1] = dose: 1.0 mg/kg/injection, schedule: Q01DX009 (ip), vehicle: Klucel (hydroxypropylcellulose) (HPC)
[2] = dose: 200.0 mg/kg/injection, schedule: Q01DX005 (ip), vehicle: saline

SMILES: COc1ccc(CC2C(=O)NC(C)C(=O)N(C)C3C(=O)N(C)C(Cc4ccc(O)c(c4)Oc4ccc(cc4)C3O)C(=O)NC(C)C(=O)NC(C)C(=O)N2C)cc1 (centres undefined)
- T/C (dose: 0.06 mg/kg/injection, schedule: Q03HX024 (ip), vehicle: saline + alcohol): 133 % of control
- T/C (dose: 0.12 mg/kg/injection, schedule: Q01DX009 (ip), vehicle: Klucel (hydroxypropylcellulose) (HPC)): 135 % of control
- T/C (dose: 0.13 mg/kg/injection, schedule: Q03HX008 (ip), vehicle: saline + alcohol): 133 % of control
- T/C (dose: 0.13 mg/kg/injection, schedule: Q03HX016 (ip), vehicle: saline + alcohol): 131 % of control
- T/C (dose: 0.25 mg/kg/injection, schedule: Q01DX005 (ip), vehicle: other): 126 % of control
- T/C (dose: 0.25 mg/kg/injection, schedule: Q01DX009 (ip), vehicle: Klucel (hydroxypropylcellulose) (HPC)): 143 and 147 % of control
- T/C (dose: 0.25 mg/kg/injection, schedule: Q01DX009 (ip), vehicle: clinical formulation): 148 % of control
- T/C (dose: 0.25 mg/kg/injection, schedule: Q01DX009 (ip), vehicle: other): 143 % of control
- T/C (dose: 0.25 mg/kg/injection, schedule: Q01DX009 (ip), vehicle: water): 142 % of control
- T/C (dose: 0.25 mg/kg/injection, schedule: Q03HX008 (ip), vehicle: saline + alcohol): 141 % of control
- T/C (dose: 0.25 mg/kg/injection, schedule: Q03HX016 (ip), vehicle: saline + alcohol): 143 % of control
- T/C (dose: 0.5 mg/kg/injection, schedule: Q01DX005 (ip), vehicle: other): 141 % of control
- T/C (dose: 0.5 mg/kg/injection, schedule: Q01DX005 (ip), vehicle: saline): 132 % of control
- T/C (dose: 0.5 mg/kg/injection, schedule: Q01DX009 (ip), vehicle: Klucel (hydroxypropylcellulose) (HPC)): 148 % of control
- T/C (dose: 0.5 mg/kg/injection, schedule: Q01DX009 (ip), vehicle: other): 148 % of control
- T/C (dose: 0.5 mg/kg/injection, schedule: Q03HX008 (ip), vehicle: other): 138 % of control
- T/C (dose: 0.5 mg/kg/injection, schedule: Q03HX008 (ip), vehicle: saline + alcohol): 147 % of control
- T/C (dose: 0.5 mg/kg/injection, schedule: Q03HX016 (ip), vehicle: other): 144 % of control
- survivor count (dose: 0.5 mg/kg/injection, schedule: Q03HX024 (ip), vehicle: other): 10 of 10
- T/C (dose: 0.5 mg/kg/injection, schedule: Q04DX003 (ip), vehicle: other): 137 % of control
- T/C (dose: 1.0 mg/kg/injection, schedule: Q01DX005 (ip), vehicle: other): 149 % of control
- T/C (dose: 1.0 mg/kg/injection, schedule: Q01DX005 (iv), vehicle: saline): 142 % of control
- T/C [1]: 148 % of control
- survivor count [1]: 8 of 10
- T/C (dose: 1.0 mg/kg/injection, schedule: Q01DX009 (ip), vehicle: saline + alcohol): 130 % of control
- survivor count (dose: 1.0 mg/kg/injection, schedule: Q03HX008 (ip), vehicle: other): 2 of 10
- survivor count (dose: 1.0 mg/kg/injection, schedule: Q03HX008 (ip), vehicle: saline + alcohol): 6 of 10
- survivor count (dose: 1.0 mg/kg/injection, schedule: Q03HX016 (ip), vehicle: other): 2 of 10
- survivor count (dose: 1.0 mg/kg/injection, schedule: Q03HX016 (ip), vehicle: saline + alcohol): 5 of 10
- survivor count (dose: 1.0 mg/kg/injection, schedule: Q03HX024 (ip), vehicle: other): 2 of 10
- T/C (dose: 1.0 mg/kg/injection, schedule: Q04DX003 (ip), vehicle: other): 149 % of control
- T/C (dose: 1.0 mg/kg/injection, schedule: Q08DX002 (ip), vehicle: other): 131 % of control
- T/C (dose: 2.0 mg/kg/injection, schedule: Q01DX001 (ip), vehicle: other): 132 % of control
- survivor count (dose: 2.0 mg/kg/injection, schedule: Q01DX005 (iv), vehicle: other): 2 of 10
- survivor count (dose: 2.0 mg/kg/injection, schedule: Q01DX005 (iv), vehicle: saline): 3 of 6
- survivor count (dose: 2.0 mg/kg/injection, schedule: Q01DX009 (ip), vehicle: Klucel (hydroxypropylcellulose) (HPC)): 4 of 10
- survivor count (dose: 2.0 mg/kg/injection, schedule: Q01DX009 (ip), vehicle: saline + alcohol): 6 of 6
- survivor count (dose: 2.0 mg/kg/injection, schedule: Q01DX009 (sc), vehicle: other): 10 of 10
- survivor count (dose: 2.0 mg/kg/injection, schedule: Q03HX008 (ip), vehicle: other): 0 of 10
- survivor count (dose: 2.0 mg/kg/injection, schedule: Q03HX016 (ip), vehicle: other): 0 of 10
- survivor count (dose: 2.0 mg/kg/injection, schedule: Q03HX024 (ip), vehicle: other): 0 of 10
- T/C (dose: 2.0 mg/kg/injection, schedule: Q08DX002 (ip), vehicle: other): 147 % of control
- T/C (dose: 4.0 mg/kg/injection, schedule: Q01DX001 (ip), vehicle: other): 132 % of control
- T/C (dose: 4.0 mg/kg/injection, schedule: Q01DX005 (ip), vehicle: saline): 142 % of control [4 of 6 alive]
- survivor count (dose: 4.0 mg/kg/injection, schedule: Q01DX005 (iv), vehicle: other): 0 of 10
- survivor count (dose: 4.0 mg/kg/injection, schedule: Q01DX005 (iv), vehicle: saline): 0 of 6
- survivor count (dose: 4.0 mg/kg/injection, schedule: Q01DX009 (ip), vehicle: Klucel (hydroxypropylcellulose) (HPC)): 1 of 10 and 4 of 6
- survivor count (dose: 4.0 mg/kg/injection, schedule: Q01DX009 (ip), vehicle: clinical formulation): 10 of 10
- survivor count (dose: 4.0 mg/kg/injection, schedule: Q01DX009 (ip), vehicle: saline + alcohol): 1 of 6
- survivor count (dose: 4.0 mg/kg/injection, schedule: Q01DX009 (ip), vehicle: water): 0 of 5
- survivor count (dose: 4.0 mg/kg/injection, schedule: Q01DX009 (sc), vehicle: other): 10 of 10
- survivor count (dose: 4.0 mg/kg/injection, schedule: Q03HX008 (ip), vehicle: other): 0 of 10
- survivor count (dose: 4.0 mg/kg/injection, schedule: Q03HX016 (ip), vehicle: other): 0 of 10
- T/C (dose: 8.0 mg/kg/injection, schedule: Q01DX001 (ip), vehicle: other): 141 % of control
- T/C (dose: 8.0 mg/kg/injection, schedule: Q08DX002 (ip), vehicle: other): 144 % of control [9 of 10 alive]
- survivor count (dose: 16.0 mg/kg/injection, schedule: Q01DX001 (ip), vehicle: other): 2 of 10
- survivor count (dose: 16.0 mg/kg/injection, schedule: Q08DX002 (ip), vehicle: other): 1 of 10
- T/C (dose: 125.0 micrograms/kg/injection, schedule: Q01DX009 (ip), vehicle: saline with Tween-80): 132 % of control
- T/C (dose: 250.0 micrograms/kg/injection, schedule: Q01DX009 (ip), vehicle: saline with Tween-80): 146 % of control
- survivor count (dose: 4000.0 micrograms/kg/injection, schedule: Q01DX009 (ip), vehicle: saline with Tween-80): 1 of 10

SMILES: CCCCCC(CN(C)C)C(=O)CC(SCC)c1ccccc1 (centres undefined)
- survivor count (dose: 50.0 mg/kg/injection, schedule: Q01DX009 (ip), vehicle: water): 3 of 6
- survivor count (dose: 100.0 mg/kg/injection, schedule: Q01DX009 (ip), vehicle: water): 0 of 6
- survivor count (dose: 200.0 mg/kg/injection, schedule: Q01DX009 (ip), vehicle: water): 0 of 6

SMILES: C1=CCC(C(Nc2nncs2)Nc2nncs2)CC1 (centres undefined)
- T/C (dose: 120.0 mg/kg/injection, schedule: Q01DX005 (ip), vehicle: saline with Tween-80): 125 % of control

SMILES: O=[N+]([O-])c1cc2c([N+](=O)[O-])cccc2o1
- survivor count (dose: 400.0 mg/kg/injection, schedule: Q04DX003 (ip), vehicle: Klucel (hydroxypropylcellulose) (HPC)): 4 of 6

SMILES: CCCCN1COC2CCCCC21 (centres undefined)
- T/C (dose: 50.0 mg/kg/injection, schedule: Q01DX005 (ip), vehicle: saline): 125 and 127 % of control
- T/C (dose: 100.0 mg/kg/injection, schedule: Q01DX005 (ip), vehicle: saline): 130 % of control
- T/C [2]: 128 % of control
- survivor count [2]: 2 of 6
